Data from PubChem BioAssay AID248 (DTP/NCI, 2004).
The list does not hold the whole screen: it is rich in T/C values a quarter to a half above the control, in often repeated tests (any T/C) and in doses without a T/C. Further doses and runs are listed elsewhere. T/C is the treated group as % of the vehicle group. Some entries give survivors of the animals treated and no T/C: the source holds a T/C of zero for them, seemingly a mark for toxic or unscored doses. Some doses without a T/C left all or most animals alive at the check, yet need not have been tolerated: the source hardly ever lists a survival T/C far under the control, and the zero likely stands for such cases as well. Survivors were counted at the toxicity check, usually on the fifth day, unless a day is given; later deaths do not show. Schedule codes are those of the source, read here as Q, the interval in days (D) or hours (H), X, the number of doses. For survival time, the PubChem record calls one and a half times the control and up active, and a quarter to a half above the control has no call in these data; cut-offs in other NCI protocols can differ. Some T/C values carry the count of animals alive at the toxicity check (mostly the fifth day); without a count, all were alive then.

Test system: L1210 leukemia ip in BDF1 mice, survival T/C
Assay: NCI In Vivo Anticancer Drug Screen. Data for tumor model L1210 Leukemia (intraperitoneal) in B6D2F1 (BDF1) mice
Settings: T/C endpoint: mean survival time, higher T/C = longer survival
[1] = dose: 150.0 mg/kg/injection, schedule: Q01DX001 (ip), vehicle: saline

O=C(O)CNC1CSSC1
survivor count (dose: 100.0 mg/kg/injection, schedule: Q01DX009 (ip), vehicle: water): 3 of 6 | survivor count (dose: 200.0 mg/kg/injection, schedule: Q01DX009 (ip), vehicle: water): 0 of 6 | survivor count (dose: 400.0 mg/kg/injection, schedule: Q01DX009 (ip), vehicle: water): 0 of 6

COc1cc(C(=O)C[n+]2ccccc2)ccc1O
survivor count (dose: 400.0 mg/kg/injection, schedule: Q04DX003 (ip), vehicle: saline with Tween-80): 2 of 6

CNC/C=C/CNC
survivor count (dose: 200.0 mg/kg/injection, schedule: Q04DX003 (ip), vehicle: saline): 5 of 6 | survivor count (dose: 400.0 mg/kg/injection, schedule: Q04DX003 (ip), vehicle: saline): 0 of 6

CC[N+](CC)(CCOc1ccc(C(C)(C)CC(C)(C)C)cc1)Cc1ccccc1
survivor count (dose: 2.5 mg/kg/injection, schedule: Q01DX009 (ip), vehicle: saline with Tween-80): 3 of 6 | survivor count (dose: 5.0 mg/kg/injection, schedule: Q01DX009 (ip), vehicle: saline with Tween-80): 4 of 6

CN(C)[C@@H]1C(=O)C(C(=O)NCNC(Cc2ccc(N(CCCl)CCCl)cc2)C(=O)O)=C(O)[C@@]2(O)C(=O)C3=C(O)c4c(O)cccc4[C@@](C)(O)[C@H]3C[C@@H]12 (some centres not stated)
T/C (dose: 3.0 mg/kg/injection, schedule: Q01DX009 (ip), vehicle: other): 125 % of control | T/C (dose: 4.4 mg/kg/injection, schedule: Q01DX009 (ip), vehicle: other): 127 % of control | T/C (dose: 9.38 mg/kg/injection, schedule: Q01DX009 (ip), vehicle: saline): 141 % of control [5 of 6 alive] | T/C (dose: 13.0 mg/kg/injection, schedule: Q01DX001 (ip), vehicle: other): 129 % of control | T/C (dose: 20.0 mg/kg/injection, schedule: Q01DX001 (ip), vehicle: other): 131 % of control | T/C (dose: 30.0 mg/kg/injection, schedule: Q01DX009 (ip), vehicle: other): 132 % of control | survivor count (dose: 50.0 mg/kg/injection, schedule: Q01DX009 (ip), vehicle: other): 6 of 6 | survivor count (dose: 150.0 mg/kg/injection, schedule: Q01DX001 (ip), vehicle: other): 6 of 6 | T/C [1]: 141 % of control | survivor count (dose: 150.0 mg/kg/injection, schedule: Q01DX009 (ip), vehicle: saline): 6 of 6

O=C1C(N2CC2)=C(N2CC2)C(=O)C(N2CC2)=C1N1CC1
T/C (dose: 0.01 mg/kg/injection, schedule: Q01DX009 (ip), vehicle: saline): 149 % of control | T/C (dose: 0.02 mg/kg/injection, schedule: Q01DX009 (ip), vehicle: saline): 133 % of control | survivor count (dose: 0.04 mg/kg/injection, schedule: Q01DX009 (ip), vehicle: saline): 6 of 6 | survivor count (dose: 0.08 mg/kg/injection, schedule: Q01DX009 (ip), vehicle: saline): 6 of 6 | T/C (dose: 0.12 mg/kg/injection, schedule: Q01DX009 (ip), vehicle: saline): 138 % of control | T/C (dose: 0.25 mg/kg/injection, schedule: Q01DX001 (ip), vehicle: saline): 134 % of control | survivor count (dose: 0.25 mg/kg/injection, schedule: Q01DX009 (ip), vehicle: saline): 6 of 6 | T/C (dose: 0.5 mg/kg/injection, schedule: Q01DX001 (ip), vehicle: saline): 131 % of control [5 of 6 alive] | survivor count (dose: 0.5 mg/kg/injection, schedule: Q01DX009 (ip), vehicle: saline): 3 of 6 | survivor count (dose: 1.0 mg/kg/injection, schedule: Q01DX001 (ip), vehicle: saline): 4 of 6 | survivor count (dose: 1.0 mg/kg/injection, schedule: Q01DX009 (ip), vehicle: saline): 4 of 6 | survivor count (dose: 2.5 mg/kg/injection, schedule: Q01DX001 (ip), vehicle: saline): 0 of 6 | survivor count (dose: 5.0 mg/kg/injection, schedule: Q01DX001 (ip), vehicle: saline): 0 of 6 | survivor count (dose: 10.0 mg/kg/injection, schedule: Q01DX001 (ip), vehicle: saline): 1 of 6 | survivor count (dose: 20.0 mg/kg/injection, schedule: Q01DX001 (ip), vehicle: saline): 0 of 6 | survivor count (dose: 40.0 mg/kg/injection, schedule: Q01DX001 (ip), vehicle: saline): 0 of 6 | survivor count (dose: 75.0 mg/kg/injection, schedule: Q01DX001 (ip), vehicle: saline): 0 of 6 | survivor count [1]: 0 of 6 | survivor count (dose: 300.0 mg/kg/injection, schedule: Q01DX001 (ip), vehicle: saline): 0 of 6
